According to paper PMC5595915:
Results are given in words; binding and its absence hold for the method and conditions named.

Molecular target: GacS histidine kinase periplasmic detector domain (GacSPD, Met38-Gly164) (Pseudomonas aeruginosa (PAK)) (UniProt G3XD98)
Assay: SEC-MALS; purified GacSPD; estimated molecular weight 15 kDa; conditions not given; both purified

GacS histidine kinase periplasmic detector domain (GacSPD, Met38-Gly164) (from UniProt G3XD98 38-164) (domain or fragment)
binding: no binding
